Measurements published in the supplement of paper PMC10849652.
The other results are listed elsewhere or left out.

Sequences of proteins named here, by UniProt entry; tags and fusion partners are left off. A change or cut given only in a name is not applied to a line headed by its entry.
UniProt P08174: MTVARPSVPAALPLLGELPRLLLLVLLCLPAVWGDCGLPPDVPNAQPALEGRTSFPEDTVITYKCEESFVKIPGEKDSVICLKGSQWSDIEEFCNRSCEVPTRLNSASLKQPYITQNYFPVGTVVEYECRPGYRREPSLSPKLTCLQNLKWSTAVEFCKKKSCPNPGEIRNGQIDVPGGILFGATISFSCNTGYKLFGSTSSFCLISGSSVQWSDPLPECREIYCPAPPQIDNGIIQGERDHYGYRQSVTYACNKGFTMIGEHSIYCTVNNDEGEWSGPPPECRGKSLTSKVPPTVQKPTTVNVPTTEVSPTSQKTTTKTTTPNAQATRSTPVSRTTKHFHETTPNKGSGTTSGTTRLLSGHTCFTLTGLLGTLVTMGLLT
UniProt O95067, whole entry, looked up: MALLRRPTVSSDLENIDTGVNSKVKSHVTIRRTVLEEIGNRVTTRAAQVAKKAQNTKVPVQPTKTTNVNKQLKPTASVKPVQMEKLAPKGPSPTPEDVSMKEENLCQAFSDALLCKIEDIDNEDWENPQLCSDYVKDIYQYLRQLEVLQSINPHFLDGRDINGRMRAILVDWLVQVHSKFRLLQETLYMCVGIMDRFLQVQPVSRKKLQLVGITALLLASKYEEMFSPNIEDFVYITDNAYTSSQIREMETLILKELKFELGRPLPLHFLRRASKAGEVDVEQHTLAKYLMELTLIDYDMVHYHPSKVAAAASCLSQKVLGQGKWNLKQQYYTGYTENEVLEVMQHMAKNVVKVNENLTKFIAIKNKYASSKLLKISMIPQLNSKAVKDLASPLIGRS
UniProt P55211: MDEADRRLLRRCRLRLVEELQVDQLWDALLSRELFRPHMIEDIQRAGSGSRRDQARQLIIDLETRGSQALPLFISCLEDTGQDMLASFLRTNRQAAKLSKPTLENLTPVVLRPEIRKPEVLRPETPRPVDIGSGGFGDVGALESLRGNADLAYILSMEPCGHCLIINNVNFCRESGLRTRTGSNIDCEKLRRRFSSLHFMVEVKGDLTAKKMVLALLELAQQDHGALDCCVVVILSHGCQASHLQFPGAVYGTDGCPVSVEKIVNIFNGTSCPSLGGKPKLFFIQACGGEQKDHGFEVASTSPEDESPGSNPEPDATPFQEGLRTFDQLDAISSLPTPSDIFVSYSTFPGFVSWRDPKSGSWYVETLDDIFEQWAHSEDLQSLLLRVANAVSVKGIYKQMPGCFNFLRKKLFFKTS
UniProt P55212: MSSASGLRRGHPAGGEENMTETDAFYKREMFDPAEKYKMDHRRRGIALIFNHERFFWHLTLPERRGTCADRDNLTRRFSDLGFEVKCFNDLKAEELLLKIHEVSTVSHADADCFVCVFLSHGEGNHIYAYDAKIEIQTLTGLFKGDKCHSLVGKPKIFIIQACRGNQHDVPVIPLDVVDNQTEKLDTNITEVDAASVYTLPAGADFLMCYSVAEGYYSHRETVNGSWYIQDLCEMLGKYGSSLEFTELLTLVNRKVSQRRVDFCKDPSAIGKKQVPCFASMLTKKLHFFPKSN
UniProt P24864, whole entry, looked up: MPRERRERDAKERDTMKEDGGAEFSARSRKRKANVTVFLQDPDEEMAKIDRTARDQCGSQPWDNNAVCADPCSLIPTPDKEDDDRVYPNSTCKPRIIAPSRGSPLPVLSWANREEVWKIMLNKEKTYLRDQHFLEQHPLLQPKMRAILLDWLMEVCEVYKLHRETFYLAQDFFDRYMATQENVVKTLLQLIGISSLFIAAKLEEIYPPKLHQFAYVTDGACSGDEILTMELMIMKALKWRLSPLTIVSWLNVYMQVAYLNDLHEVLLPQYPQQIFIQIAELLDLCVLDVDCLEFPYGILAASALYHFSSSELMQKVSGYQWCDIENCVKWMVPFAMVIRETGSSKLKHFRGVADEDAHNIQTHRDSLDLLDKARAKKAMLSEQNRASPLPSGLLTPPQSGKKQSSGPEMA
UniProt Q3V6T2: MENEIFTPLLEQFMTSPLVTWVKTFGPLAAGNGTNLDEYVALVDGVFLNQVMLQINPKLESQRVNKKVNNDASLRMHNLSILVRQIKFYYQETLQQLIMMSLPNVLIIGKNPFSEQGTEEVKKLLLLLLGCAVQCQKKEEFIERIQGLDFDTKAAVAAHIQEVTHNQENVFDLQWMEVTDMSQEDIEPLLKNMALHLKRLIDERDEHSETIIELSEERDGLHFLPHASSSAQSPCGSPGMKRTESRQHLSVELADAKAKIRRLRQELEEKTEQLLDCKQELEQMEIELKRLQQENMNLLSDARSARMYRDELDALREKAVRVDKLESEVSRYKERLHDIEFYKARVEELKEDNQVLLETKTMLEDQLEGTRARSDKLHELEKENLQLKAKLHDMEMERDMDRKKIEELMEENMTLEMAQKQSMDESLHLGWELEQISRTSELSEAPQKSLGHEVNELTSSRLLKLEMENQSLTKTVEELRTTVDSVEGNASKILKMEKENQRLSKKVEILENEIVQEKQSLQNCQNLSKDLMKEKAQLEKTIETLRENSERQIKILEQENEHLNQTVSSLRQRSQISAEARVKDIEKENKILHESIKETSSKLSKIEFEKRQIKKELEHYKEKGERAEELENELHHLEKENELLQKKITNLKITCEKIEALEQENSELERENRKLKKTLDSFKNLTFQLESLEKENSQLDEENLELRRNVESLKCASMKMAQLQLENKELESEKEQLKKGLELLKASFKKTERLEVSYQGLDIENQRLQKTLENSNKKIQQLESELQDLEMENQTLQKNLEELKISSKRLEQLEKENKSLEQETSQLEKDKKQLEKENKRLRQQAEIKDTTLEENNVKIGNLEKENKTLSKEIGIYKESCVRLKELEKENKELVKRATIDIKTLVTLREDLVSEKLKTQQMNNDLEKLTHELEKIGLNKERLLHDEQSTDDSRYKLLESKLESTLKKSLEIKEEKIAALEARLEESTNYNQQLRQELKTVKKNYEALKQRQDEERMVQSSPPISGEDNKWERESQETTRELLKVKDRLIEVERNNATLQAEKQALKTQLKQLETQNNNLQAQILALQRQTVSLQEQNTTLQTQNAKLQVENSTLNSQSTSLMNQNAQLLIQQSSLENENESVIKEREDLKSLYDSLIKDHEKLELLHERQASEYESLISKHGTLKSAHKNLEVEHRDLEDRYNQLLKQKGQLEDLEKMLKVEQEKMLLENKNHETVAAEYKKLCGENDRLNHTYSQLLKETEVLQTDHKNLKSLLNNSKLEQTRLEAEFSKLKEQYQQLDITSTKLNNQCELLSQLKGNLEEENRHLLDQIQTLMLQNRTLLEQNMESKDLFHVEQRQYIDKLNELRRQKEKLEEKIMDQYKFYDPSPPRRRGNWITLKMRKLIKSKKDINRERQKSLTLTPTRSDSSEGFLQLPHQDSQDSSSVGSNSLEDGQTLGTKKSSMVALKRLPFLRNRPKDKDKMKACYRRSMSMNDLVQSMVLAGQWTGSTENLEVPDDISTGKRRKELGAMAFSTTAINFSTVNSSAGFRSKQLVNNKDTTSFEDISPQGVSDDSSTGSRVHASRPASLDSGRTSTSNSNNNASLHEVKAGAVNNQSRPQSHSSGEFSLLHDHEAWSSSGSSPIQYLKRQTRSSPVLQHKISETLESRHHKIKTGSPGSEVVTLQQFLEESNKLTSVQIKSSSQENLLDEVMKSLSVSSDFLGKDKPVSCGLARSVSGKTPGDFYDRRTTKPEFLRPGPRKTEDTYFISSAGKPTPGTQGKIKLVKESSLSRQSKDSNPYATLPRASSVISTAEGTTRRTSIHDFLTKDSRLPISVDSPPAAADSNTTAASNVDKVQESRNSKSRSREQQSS
UniProt Q5T0F9: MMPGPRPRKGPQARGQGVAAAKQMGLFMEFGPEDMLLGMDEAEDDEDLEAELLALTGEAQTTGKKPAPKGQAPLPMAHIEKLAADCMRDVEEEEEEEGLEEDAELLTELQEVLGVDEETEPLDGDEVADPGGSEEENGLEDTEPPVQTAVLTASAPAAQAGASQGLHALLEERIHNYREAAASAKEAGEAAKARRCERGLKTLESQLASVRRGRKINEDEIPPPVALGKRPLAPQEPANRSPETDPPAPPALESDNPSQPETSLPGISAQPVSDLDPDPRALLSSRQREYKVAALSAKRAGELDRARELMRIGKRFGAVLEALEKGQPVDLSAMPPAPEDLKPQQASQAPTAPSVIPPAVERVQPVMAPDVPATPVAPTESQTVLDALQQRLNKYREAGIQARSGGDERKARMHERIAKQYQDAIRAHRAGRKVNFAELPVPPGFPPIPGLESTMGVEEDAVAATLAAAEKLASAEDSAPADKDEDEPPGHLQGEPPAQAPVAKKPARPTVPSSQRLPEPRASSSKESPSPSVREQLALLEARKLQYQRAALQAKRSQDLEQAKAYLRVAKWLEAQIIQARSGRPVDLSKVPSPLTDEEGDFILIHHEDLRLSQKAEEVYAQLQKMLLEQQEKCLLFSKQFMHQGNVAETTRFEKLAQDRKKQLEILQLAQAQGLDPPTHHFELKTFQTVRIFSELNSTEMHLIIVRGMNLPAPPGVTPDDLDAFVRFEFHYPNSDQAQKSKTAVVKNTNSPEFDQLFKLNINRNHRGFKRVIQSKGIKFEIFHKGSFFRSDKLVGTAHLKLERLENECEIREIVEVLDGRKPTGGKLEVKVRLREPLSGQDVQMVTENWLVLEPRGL
UniProt Q96A33: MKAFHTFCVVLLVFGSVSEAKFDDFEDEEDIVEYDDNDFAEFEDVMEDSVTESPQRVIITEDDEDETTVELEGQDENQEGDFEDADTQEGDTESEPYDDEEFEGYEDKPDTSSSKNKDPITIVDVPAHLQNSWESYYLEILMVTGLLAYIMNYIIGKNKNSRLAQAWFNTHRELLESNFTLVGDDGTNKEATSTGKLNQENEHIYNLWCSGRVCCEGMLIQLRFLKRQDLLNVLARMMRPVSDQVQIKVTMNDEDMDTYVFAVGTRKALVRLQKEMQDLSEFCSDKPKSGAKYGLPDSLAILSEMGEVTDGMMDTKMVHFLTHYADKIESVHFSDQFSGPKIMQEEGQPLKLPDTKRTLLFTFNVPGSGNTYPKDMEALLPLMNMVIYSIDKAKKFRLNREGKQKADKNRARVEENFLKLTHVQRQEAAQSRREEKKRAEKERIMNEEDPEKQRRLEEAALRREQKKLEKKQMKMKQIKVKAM
UniProt Q9ULG6: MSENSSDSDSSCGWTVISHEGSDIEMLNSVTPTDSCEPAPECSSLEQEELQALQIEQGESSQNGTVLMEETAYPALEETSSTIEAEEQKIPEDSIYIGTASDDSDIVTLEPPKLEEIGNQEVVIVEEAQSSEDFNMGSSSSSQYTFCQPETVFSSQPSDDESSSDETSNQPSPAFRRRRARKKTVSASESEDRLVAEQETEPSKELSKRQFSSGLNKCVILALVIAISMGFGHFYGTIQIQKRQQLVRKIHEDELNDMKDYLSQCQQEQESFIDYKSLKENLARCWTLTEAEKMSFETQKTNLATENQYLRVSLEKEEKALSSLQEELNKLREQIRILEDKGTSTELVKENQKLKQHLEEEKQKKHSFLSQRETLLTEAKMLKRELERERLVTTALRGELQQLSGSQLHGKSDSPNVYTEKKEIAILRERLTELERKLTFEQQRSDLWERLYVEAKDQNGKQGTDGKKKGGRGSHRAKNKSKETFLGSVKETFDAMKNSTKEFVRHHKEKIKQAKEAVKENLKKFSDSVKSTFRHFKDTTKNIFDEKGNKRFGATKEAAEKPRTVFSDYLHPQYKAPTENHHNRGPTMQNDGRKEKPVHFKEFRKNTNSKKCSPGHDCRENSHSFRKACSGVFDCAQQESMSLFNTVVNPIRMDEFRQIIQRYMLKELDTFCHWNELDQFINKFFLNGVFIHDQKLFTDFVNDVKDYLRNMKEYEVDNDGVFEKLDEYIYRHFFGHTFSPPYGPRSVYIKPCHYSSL
UniProt Q9Y3X0: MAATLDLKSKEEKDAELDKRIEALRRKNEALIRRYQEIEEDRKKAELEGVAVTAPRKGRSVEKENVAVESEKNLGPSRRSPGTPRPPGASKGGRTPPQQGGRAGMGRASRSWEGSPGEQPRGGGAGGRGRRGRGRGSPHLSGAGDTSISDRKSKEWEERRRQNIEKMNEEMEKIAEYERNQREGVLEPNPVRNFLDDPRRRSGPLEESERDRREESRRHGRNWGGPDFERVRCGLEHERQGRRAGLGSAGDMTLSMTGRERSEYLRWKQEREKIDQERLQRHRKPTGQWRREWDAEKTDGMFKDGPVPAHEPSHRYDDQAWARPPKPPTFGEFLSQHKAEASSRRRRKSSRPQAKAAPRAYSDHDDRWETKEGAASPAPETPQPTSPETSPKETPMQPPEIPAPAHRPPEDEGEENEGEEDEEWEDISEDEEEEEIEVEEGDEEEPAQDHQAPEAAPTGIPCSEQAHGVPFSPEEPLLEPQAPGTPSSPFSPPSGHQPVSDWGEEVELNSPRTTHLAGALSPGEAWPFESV

compound: Cc1sc2c(c1C)C(c1ccc(Cl)cc1)=N[C@@H](CC(=O)OC(C)(C)C)c1nnc(C)n1-2; experiment: log2 fold change, soluble protein after heating vs DMSO (PISA); higher = thermal stabilisation; K562 lysate, 10 uM; active = over 0.2 and 3.5 SD of the protein, either way, in both replicates (recomputed)
Method in brief: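 Log-two fold change in thermal stability relative to solvent controls is reported from duplicates. For each sample, crude K562 extract from dounce-homogenised pellets in PBS pH 7.4 with 1 mM MgCl2, at 1 mg/mL protein, was treated with 10 μM compound for 30 min. Aliquots heated for 3 min across 48°C-58°C were pooled, brought to 0.5% NP-40 at 4°C and cleared at 21,000xg for 90 min. The supernatant was quantified by TMTpro 16plex LC-MS/MS with channel sums equalised.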

**Q.** For CD55 isoform 7 (UniProt P08174), which log2 fold change is on record?
**A.** inactive: -0.012

**Q.** How did the log2 fold change turn out when CCDC134 (UniProt Q9H6E4) was run?
**A.** inactive: 0.01

**Q.** CCNB2 (UniProt O95067) was tested. Which log2 fold change did it give?
**A.** inactive: 0.048

**Q.** For CASP9 (UniProt P55211), which log2 fold change is on record?
**A.** inactive: -0.05

**Q.** Which log2 fold change does the source give for CASP6 (UniProt P55212) here?
**A.** inactive: 0.009

**Q.** CCNE1 (UniProt P24864) was tested. Which log2 fold change did it give?
**A.** inactive: -0.06

**Q.** Which log2 fold change does the source give for CCDC88A (UniProt Q3V6T2) here?
**A.** inactive: -0.005

**Q.** For CC2D1B isoform 2 (UniProt Q5T0F9), which log2 fold change is on record?
**A.** inactive: 0.011

**Q.** How did the log2 fold change turn out when CD63 (UniProt P08962) was run?
**A.** inactive: -0.13

**Q.** How did the log2 fold change turn out when CCDC47 (UniProt Q96A33) was run?
**A.** inactive: 0.017

**Q.** With CCPG1 isoform 5 (UniProt Q9ULG6) as the target, how does the log2 fold change read?
**A.** inactive: -0.082

**Q.** How did the log2 fold change turn out when CCM2 isoform 2 (UniProt Q9BSQ5) was run?
**A.** inactive: 0.015

**Q.** With CCS (UniProt O14618) as the target, how does the log2 fold change read?
**A.** inactive: -0.018

**Q.** With CCDC9 (UniProt Q9Y3X0) as the target, how does the log2 fold change read?
**A.** inactive: -0.025

**Q.** CCNT1 (UniProt O60563) was tested. Which log2 fold change did it give?
**A.** inactive: -0.1
